According to PubChem BioAssay AID540276 (National Center for Advancing Translational Sciences (NCATS), 2011):
The campaign covered roughly 300,000 compounds. About 5,400 (1.8%) were called active. This list was built around the results that the source calls inconclusive (neither active nor inactive); the mix of calls is not that of the screen. Calls come from the whole dose curve; tested in HEK293 cells. Potencies of inconclusive entries are doubtful fits and often do not repeat.

Assay: qHTS for inhibitors of binding or entry into cells for Marburg Virus
Conditions: Marburg virus pseudotyped entry inhibition, cell reporter; series mostly up to 37.8 µM
Potency is the fitted concentration of half-maximal effect.

Row | SMILES | Potency
1 | COC(=O)c1[nH]c2cc(OC)ccc2c1NC(=O)CCN1CCN(c2cccc(C)c2C)CC1 | inconclusive: 20 µM [inhibitor, partial curve, poor fit]
2 | C/C(CC(=O)NCc1ccc(Cl)cc1)=N\NC(=O)Cc1ccccc1 | inconclusive: 35.5 µM [activator, single point]
3 | CSc1nc(N(C)CCO)c2sc3nc(-c4ccco4)c4c(c3c2n1)CCC4 | inactive
4 | CNC(=O)CSc1ncnc2c1cnn2-c1ccccc1 | inactive
5 | CCOC(=O)c1c2c3c(cccc3[nH]c1=O)C(=O)c1ccccc1-2 | inactive
6 | COc1ccc(-c2cc(C#N)nc(Cl)n2)cc1 | inconclusive: 3.55 µM [inhibitor, single point]
7 | COc1ccc(CCN2CC3=C(C2=O)C(c2ccccc2)NC(=O)N3C)cc1OC (stereo unspecified) | inactive
8 | O=C(Nc1cccc([N+](=O)[O-])c1)Nc1ccc2c(c1)CCC2 | inconclusive: 1.12 µM [activator, partial curve, poor fit]
9 | Cc1cccc(C(=O)NN2C(=O)C3C(c4ccccc4)C=CC(c4ccccc4)C3C2=O)c1 (stereo unspecified) | inconclusive: 17.8 µM [inhibitor, partial curve, poor fit]
10 | COc1ccc(S(=O)(=O)N2CC(C)N(C(=O)N(C)C)C2C(C)C)cc1 (stereo unspecified) | inactive
11 | CCOC(=O)c1cnc2c(OC)cccc2c1Nc1cccc(O)c1 | inactive
12 | COc1ccc(Nc2nc(N)nc(C(F)(F)F)n2)c(OC)c1 | inactive
13 | Cc1ccc(C)c(OCC(=O)Nc2cccc(C(=O)O)c2)c1C | inactive
14 | CCOC(=O)C1CCN(S(=O)(=O)Cc2ccccc2)CC1 | inconclusive: 0.517 µM [inhibitor, partial curve, poor fit]
15 | O=C(CSc1ncnc2c1oc1ccccc12)Nc1cccc(Cl)c1 | inconclusive: 1.64 µM [inhibitor, partial curve, poor fit]
16 | CC1CCN(c2nc(-c3ccccc3)cc(C(F)(F)F)n2)CC1 | inconclusive: 29.1 µM [inhibitor, single point]
17 | Cc1ccccc1S(=O)(=O)Cc1ccc(C(=O)NCCN(C)Cc2ccccc2)o1 | inconclusive: 22.4 µM [inhibitor, single point]
18 | COc1ccccc1C(=O)N1CCN(C(=O)Cc2ccccc2)CC1 | inconclusive: 0.562 µM [inhibitor, full curve, poor fit]
19 | Cc1nc(-c2ccccn2)sc1C(=O)O | inconclusive: 35.5 µM [activator, single point]
20 | CSc1nc2c(c(C(F)(F)F)n1)CC(C)CC2 (stereo unspecified) | inconclusive: 35.5 µM [inhibitor, single point]
21 | NC(=S)N/N=C\c1c(OCc2ccccc2Cl)ccc2ccccc12 | inconclusive: 6.31 µM [inhibitor, full curve, poor fit]
22 | Cc1ccc(NC(=S)N=Nc2c(O)[nH]c3ccccc23)cc1 | inconclusive: 6.31 µM [inhibitor, single point]
23 | COc1ccc(NC(=O)C(CCS(C)(=O)=O)NC(C)=O)cc1 (stereo unspecified) | inconclusive: 3.16 µM [activator, partial curve, poor fit]

4 successive records already listed, for reference:
Row | SMILES | Potency
13 | Cc1ccc(C)c(OCC(=O)Nc2cccc(C(=O)O)c2)c1C | inactive
14 | CCOC(=O)C1CCN(S(=O)(=O)Cc2ccccc2)CC1 | inconclusive: 0.517 µM [inhibitor, partial curve, poor fit]
15 | O=C(CSc1ncnc2c1oc1ccccc12)Nc1cccc(Cl)c1 | inconclusive: 1.64 µM [inhibitor, partial curve, poor fit]
16 | CC1CCN(c2nc(-c3ccccc3)cc(C(F)(F)F)n2)CC1 | inconclusive: 29.1 µM [inhibitor, single point]

Additional compounds:

Row | SMILES | Potency
24 | O=C(NNC(=O)c1cccnc1)Nc1ccc([N+](=O)[O-])cc1 | inactive
25 | O=C(NCC1CC1(Cl)Cl)Nc1ccc(Cl)c(Cl)c1 (stereo unspecified) | inconclusive: 35.5 µM [inhibitor, single point]
26 | O=C(Nc1c(C(=O)c2ccccc2)oc2ccccc12)c1cc(=O)c2ccccc2o1 | inactive
27 | N/C(Cc1ccccc1)=N\OC(=O)c1cccc2ccccc12 | inconclusive: 20.6 µM [inhibitor, partial curve, poor fit]
28 | COc1cccc(NC(=O)CN(C)C(=O)c2ccc(NC(=O)CC3SC(N4CCCCC4)=NC3=O)cc2)c1 (stereo unspecified) | inactive
29 | Cc1cccc(NC(=O)NNC(=O)c2cc3ccccc3cc2O)c1C | inactive
30 | CC(C)CC(=O)O/N=C1\C(=O)N(c2ccccc2)c2ccccc21 | inconclusive: 7.94 µM [activator, partial curve, poor fit]
31 | COc1cccc(N2CN(C3CCCCC3)CNC2=S)c1 | inactive
32 | O=C(Nc1ccc2nc(SCC(=O)N3CCCc4ccccc43)sc2c1)c1ccc(F)cc1 | inconclusive: 35.5 µM [inhibitor, single point]
33 | COc1ccc(OC)c(NC(=O)c2cc3ccccc3o2)c1 | inactive
34 | CCCCN(CC)C(=O)Cn1c(=O)n(-c2ccc(OCC)cc2)c(=O)c2c3c(sc21)CCCC3 | inconclusive: 31.6 µM [activator, single point]
35 | CCC(=O)N1CCCc2cc(S(=O)(=O)Nc3ccc(C)c(C)c3)ccc21 | inactive
36 | COC(=O)c1ccc(N=NN2CCOCC2)cc1 | inconclusive: 6.31 µM [activator, single point]
37 | COc1ccccc1C(CNC(=O)c1ccc(-c2ccccc2Cl)o1)N1CCCC1 (stereo unspecified) | inconclusive: 5.01 µM [inhibitor, full curve, poor fit]
38 | Cc1ccc(NC(=O)N(Cc2ccco2)Cc2cc3cc(C)cc(C)c3nc2Cl)cc1 | inactive
39 | CCCN1CCc2cc(O)cc3c2C1Cc1ccc(O)c(O)c1-3 (stereo unspecified) | active: 35.5 µM
40 | Cc1cc(Cl)ccc1OC(C)C(=O)N1CCCN(C(=O)C(C)Oc2ccc(Cl)cc2C)CC1 (stereo unspecified) | inconclusive: 22.4 µM [inhibitor, single point]
41 | S=C(NCc1ccco1)N/N=C/c1ccc(Cl)cc1 | inactive
42 | N#C/C(=C/c1ccc(CNS(=O)(=O)c2ccccc2)o1)C(=O)NCc1ccccc1 | inconclusive: 12.6 µM [inhibitor, single point]
43 | CC1=C(C(=O)Nc2ccccc2C)C(c2ccc(C)o2)n2c(s/c(=C/c3ccccc3)c2=O)=N1 (stereo unspecified) | inconclusive: 6.31 µM [inhibitor, single point]
44 | CC(C)(C)OC(=O)NCC(=O)N1CCC(C(=O)O)CC1 | inconclusive: 5.01 µM [activator, partial curve, poor fit]
45 | CCOc1ccccc1NC(=O)NNC(=O)c1ccc2ccccc2c1 | inconclusive: 11.2 µM [inhibitor, partial curve]
46 | Cc1ccc(CNC(=O)CSc2c3c(nc4ccc(Cl)cc24)CCCC3)o1 | inconclusive: 17.8 µM [inhibitor, single point]
